Values quoted from earlier work as cited in paper PMC5700124 (Scientific Reports, 2017).
Like-named read-outs stand apart in the source and are kept apart here.

Key:
[1] = system: α2 adrenoceptor; details: cited from earlier work
[2] = system: α2 adrenoceptor; set-up: method as in Rout et al.[32]; details: cortex, pH 7.0, 25.0 °C, blocking of NS noradrenaline 100 μM, ref Rout et al.[32], cited from earlier work

| Structure (SMILES) | Bmax ([1]; anterior forebrain, autoradiography, pH 7.7, 22 °C, mg^2+ 0, blocking of NS phentolamine 10 μM, ref Boyajian et al.[41]) | receptor density ([1]; in vitro receptor binding, rat caudate-putamen) | Bmax ([2]; mg^2+ 0 mM) | Bmax ([2]; mg^2+ 10 mM) |
| --- | --- | --- | --- | --- |
| COC(=O)[C@H]1[C@H]2C[C@H]3c4[nH]c5ccccc5c4CCN3C[C@H]2CC[C@@H]1O [[^3H] -rauwolscine, [^3H]rauwolscine] | 109 fmol/mg protein | 197 fmol/mg protein | – | – |
| COC(=O)[C@@H]1[C@H]2C[C@H]3c4[nH]c5ccccc5c4CCN3C[C@@H]2CC[C@@H]1O [[^3H]yohimbine] | – | – | 260 fmol/mg protein | 157 fmol/mg protein |
